Measurements published in the supplement of paper PMC3353916.
This is a noisy data set.

Tested on: Sindbis virus TE/5'2J-GFP
Assay: percent infected (GFP+ in RFP+ ISG-expressing cells); higher = more infection (less antiviral activity)
Details: experiment: primary screen (single well)

Sequence | percent infected (BHK/NZAP-Zeo (ZAP)) [%] | percent infected (BHK/HA-Zeo (control)) [%]
MGERTLHAAVPTPGYPESESIMMAPICLVENQEEQLTVNSKALEILDKISQPVVVVAIVGLYRTGKSYLMNRLAGKRNGFPLGSTVQSETKGIWMWCVPHLSKPNHTLVLLDTEGLGDVEKSNPKNDSWIFALAVLLSSSFVYNSVSTINHQALEQLHYVTELAELIRAKSCPRPDEAEDSSEFASFFPDFIWTVRDFTLELKLDGNPITEDEYLENALKLIPGKNPKIQNSNMPRECIRHFFRKRKCFVFDRPTNDKQYLNHMDEVPEENLERHFLMQSDNFCSYIFTHAKTKTLREGIIVTGKRLGTLVVTYVDAINSGAVPCLENAVTALAQLENPAAVQRAADHYSQQMAQQLRLPTDTLQELLDVHAACEREAIAVFMEHSFKDENHEFQKKLVDTIEKKKGDFVLQNEEASAKYCQAELKRLSEHLTESILRGIFSVPGGHNLYLEEKKQVEWDYKLVPRKGVKANEVLQNFLQSQVVVEESILQSDKALTAGEKAIAAERAMKEAAEKEQELLREKQKEQQQMMEAQERSFQEYMAQMEKKLEEERENLLREHERLLKHKLKVQEEMLKEEFQKKSEQLNKEINQLKEKIESTKNEQLRLLKILDMASNIMIVTLPGASKLLGVGTKYLGSRI [GBP4] | 84.4 | 
MGHTRRQGTSPSKCPYLNFFQLLVLAGLSHFCSGVIHVTKEVKEVATLSCGHNVSVEELAQTRIYWQKEKKMVLTMMSGDMNIWPEYKNRTIFDITNNLSIVILALRPSDEGTYECVVLKYEKDAFKREHLAEVTLSVKADFPTPSISDFEIPTSNIRRIICSTSGGFPEPHLSWLENGEELNAINTTVSQDPETELYAVSSKLDFNMTTNHSFMCLIKYGHLRVNQTFNWNTTKQEHFPDNLLPSWAITLISVNGIFVICCLTYCFAPRCRERRRNERLRRESVRPV [CD80] | 95.5 | 97.2
MGILYSEPICQAAYQNDFGQVWRWVKEDSSYANVQDGFNGDTPLICACRRGHVRIVSFLLRRNANVNLKNQKERTCLHYAVKKKFTFIDYLLIILLMPVLLIGYFLMVSKTKQNEALVRMLLDAGVEVNATDCYGCTALHYACEMKNQSLIPLLLEARADPTIKNKHGESSLDIARRLKFSQIELMLRKAL [ANKRD22] | 78.8 | 91.5
MGKKYKNIVLLKGLEVINDYHFRMVKSLLSNDLKLNLKMREEYDKIQIADLMEEKFRGDAGLGKLIKIFEDIPTLEDLAETLKKEKLKVKGPALSRKRKKEVDATSPAPSTSSTVKTEGAEATPGAQKRKKSTKEKAGPKGSKVSEEQTQPPSPAGAGMSTAMGRSPSPKTSLSAPPNSSSTENPKTVAKCQVTPRRNVLQKRPVIVKVLSTTKPFEYETPEMEKKIMFHATVATQTQFFHVKVLNTSLKEKFNGKKIIIISDYLEYDSLLEVNEESTVSEAGPNQTFEVPNKIINRAKETLKIDILHKQASGNIVYGVFMLHKKTVNQKTTIYEIQDDRGKMDVVGTGQCHNIPCEEGDKLQLFCFRLRKKNQMSKLISEMHSFIQIKKKTNPRNNDPKSMKLPQEQRQLPYPSEASTTFPESHLRTPQMPPTTPSSSFFTKKSEDTISKMNDFMRMQILKEGSHFPGPFMTSIGPAESHPHTPQMPPSTPSSSFLTTKSEDTISKMNDFMRMQILKEGSHFPGPFMTSIGPAESHPHTPQMPPSTPSSSFLTTLKPRLKTEPEEVSIEDSAQSDLKEVMVLNATESFVYEPKEQKKMFHATVATENEVFRVKVFNIDLKEKFTPKKIIAIANYVCRNGFLEVYPFTLVADVNADRNMEIPKGLIRSASVTPKINQLCSQTKGSFVNGVFEVHKKNVRGEFTYYEIQDNTGKMEVVVHGRLTTINCEEGDKLKLTCFELAPKSGNTGELRSVIHSHIKVIKTRKNKKDILNPDSSMETSPDFFF [IFI16] | 95.9 | 
MGKPARKGCEWKRFLKNNWVLLSTVAAVVLGITTGVLVREHSNLSTLEKFYFAFPGEILMRMLKLIILPLIISSMITGVAALDSNVSGKIGLRAVVYYFCTTLIAVILGIVLVVSIKPGVTQKVGEIARTGSTPEVSTVDAMLDLIRNMFPENLVQACFQQYKTKREEVKPPSDPEMNMTEESFTAVMTTAISKNKTKEYKIVGMYSDGINVLGLIVFCLVFGLVIGKMGEKGQILVDFFNALSDATMKIVQIIMCYMPLGILFLIAGKIIEVEDWEIFRKLGLYMATVLTGLAIHSIVILPLIYFIVVRKNPFRFAMGMAQALLTALMISSSSATLPVTFRCAEENNQVDKRITRFVLPVGATINMDGTALYEAVAAVFIAQLNDLDLGIGQIITISITATSASIGAAGVPQAGLVTMVIVLSAVGLPAEDVTLIIAVDWLLDRFRTMVNVLGDAFGTGIVEKLSKKELEQMDVSSEVNIVNPFALESTILDNEDSDTKKSYVNGGFAVDKSDTISFTQTSQF [SLC1A1] |  | 91
MGKSASKQFHNEVLKAHNEYRQKHGVPPLKLCKNLNREAQQYSEALASTRILKHSPESSRGQCGENLAWASYDQTGKEVADRWYSEIKNYNFQQPGFTSGTGHFTAMVWKNTKKMGVGKASASDGSSFVVARYFPAGNVVNEGFFEENVLPPKK [C9orf19] | 94.3 | 97.8
MGLGRVLLFLAVAFPFAPPAAAAEPHSLRYNLMVLSQDGSVQSGFLAEGHLDGQPFLRYDRQKRRAKPQGQWAENVLGAKTWDTETEDLTENGQDLRRTLTHIKDQKGGLHSLQEIRVCEIHEDSSTRGSRHFYYDGELFLSQNLETQESTVPQSSRAQTLAMNVTNFWKEDAMKTKTHYRAMQADCLQKLQRYLKSGVAIRRTVPPMVNVTCSEVSEGNITVTCRASSFYPRNITLTWRQDGVSLSHNTQQWGDVLPDGNGTYQTWVATRIRQGEEQRFTCYMEHSGNHGTHPVPSGKALVLQSQRTDFPYVSAAMPCFVIIIILCVPCCKKKTSAAEGPELVSLQVLDQHPVGTGDHRDAAQLGFQPLMSATGSTGSTEGT [MICB] | 93.9 | 98.7
MGLKLNGRYISLILAVQIAYLVQAVRAAGKCDAVFKGFSDCLLKLGDSMANYPQGLDDKTNIKTVCTYWEDFHSCTVTALTDCQEGAKDMWDKLRKESKNLNIQGSLFELCGSGNGAAGSLLPAFPVLLVSLSAALATWLSF [NRN1] | 90.8 | 91
MGLQLRALLGAFGRWTLRLGPRPSCSPRMAGNAEPPPAGAACPQDRRSCSGRAGGDRVWEDGEHPAKKLKSGGDEERREKPPKRKIVLLMAYSGKGYHGMQRNVGSSQFKTIEDDLVSALVRSGCIPENHGEDMRKMSFQRCARTDKGVSAAGQVVSLKVWLIDDILEKINSHLPSHIRILGLKRVTGGFNSKNRCDARTYCYLLPTFAFAHKDRDVQDETYRLSAETLQQVNRLLACYKGTHNFHNFTSQKGPQDPSACRYILEMYCEEPFVREGLEFAVIRVKGQSFMMHQIRKMVGLVVAIVKGYAPESVLERSWGTEKVDVPKAPGLGLVLERVHFEKYNQRFGNDGLHEPLDWAQEEGKVAAFKEEHIYPTIIGTERDERSMAQWLSTLPIHNFSATALTAGGTGAKVPSPLEGSEGDGDTD [PUS1] | 96.3 | 97.8
MGMACLTMTEMEGTSTSSIYQNGDISGNANSMKQIDPVLQVYLYHSLGKSEADYLTFPSGEYVAEEICIAASKACGITPVYHNMFALMSETERIWYPPNHVFHIDESTRHNVLYRIRFYFPRWYCSGSNRAYRHGISRGAEAPLLDDFVMSYLFAQWRHDFVHGWIKVPVTHETQEECLGMAVLDMMRIAKENDQTPLAIYNSISYKTFLPKCIRAKIQDYHILTRKRIRYRFRRFIQQFSQCKATARNLKLKYLINLETLQSAFYTEKFEVKEPGSGPSGEEIFATIIITGNGGIQWSRGKHKESETLTEQDLQLYCDFPNIIDVSIKQANQEGSNESRVVTIHKQDGKNLEIELSSLREALSFVSLIDGYYRLTADAHHYLCKEVAPPAVLENIQSNCHGPISMDFAISKLKKAGNQTGLYVLRCSPKDFNKYFLTFAVERENVIEYKHCLITKNENEEYNLSGTKKNFSSLKDLLNCYQMETVRSDNIIFQFTKCCPPKPKDKSNLLVFRTNGVSDVPTSPTLQRPTHMNQMVFHKIRNEDLIFNESLGQGTFTKIFKGVRREVGDYGQLHETEVLLKVLDKAHRNYSESFFEAASMMSKLSHKHLVLNYGVCVCGDENILVQEFVKFGSLDTYLKKNKNCINILWKLEVAKQLAWAMHFLEENTLIHGNVCAKNILLIREEDRKTGNPPFIKLSDPGISITVLPKDILQERIPWVPPECIENPKNLNLATDKWSFGTTLWEICSGGDKPLSALDSQRKLQFYEDRHQLPAPKWAELANLINNCMDYEPDFRPSFRAIIRDLNSLFTPDYELLTENDMLPNMRIGALGFSGAFEDRDPTQFEERHLKFLQQLGKGNFGSVEMCRYDPLQDNTGEVVAVKKLQHSTEEHLRDFEREIEILKSLQHDNIVKYKGVCYSAGRRNLKLIMEYLPYGSLRDYLQKHKERIDHIKLLQYTSQICKGMEYLGTKRYIHRDLATRNILVENENRVKIGDFGLTKVLPQDKEYYKVKEPGESPIFWYAPESLTESKFSVASDVWSFGVVLYELFTYIEKSKSPPAEFMRMIGNDKQGQMIVFHLIELLKNNGRLPRPDGCPDEIYMIMTECWNNNVNQRPSFRDLALRVDQIRDNMAG [JAK2] | 98.1 | 98.5
MGNGESQLSSVPAQKLGWFIQEYLKPYEECQTLIDEMVNTICDVLQEPEQFPLVQGVAIGGSYGRKTVLRGNSDGTLVLFFSDLKQFQDQKRSQRDILDKTGDKLKFCLFTKWLKNNFEIQKSLDGFTIQVFTKNQRISFEVLAAFNALSLNDNPSPWIYRELKRSLDKTNASPGEFAVCFTELQQKFFDNRPGKLKDLILLIKHWHQQCQKKIKDLPSLSPYALELLTVYAWEQGCRKDNFDIAEGVRTVLELIKCQEKLCIYWMVNYNFEDETIRNILLHQLQSARPVILDPVDPTNNVSGDKICWQWLKKEAQTWLTSPNLDNELPAPSWNVLPAPLFTTPGHLLDKFIKEFLQPNKCFLEQIDSAVNIIRTFLKENCFRQSTAKIQIVRGGSTAKGTALKTGSDADLVVFHNSLKSYTSQKNERHKIVKEIHEQLKAFWREKEEELEVSFEPPKWKAPRVLSFSLKSKVLNESVSFDVLPAFNALGQLSSGSTPSPEVYAGLIDLYKSSDLPGGEFSTCFTVLQRNFIRSRPTKLKDLIRLVKHWYKECERKLKPKGSLPPKYALELLTIYAWEQGSGVPDFDTAEGFRTVLELVTQYQQLCIFWKVNYNFEDETVRKFLLSQLQKTRPVILDPAEPTGDVGGGDRWCWHLLAKEAKEWLSSPCFKDGTGNPIPPWKVPTMQTPGSCGARIHPIVNEMFSSRSHRILNNNSKRNF [OAS2] | 92 | 98.1
MGQKVTGGIKTVDMRDPTYRPLKQELQGLDYCKPTRLDLLLDMPPVSYDVQLLHSWNNNDRSLNVFVKEDDKLIFHRHPVAQSTDAIRGKVGYTRGLHVWQITWAMRQRGTHAVVGVATADAPLHSVGYTTLVGNNHESWGWDLGRNRLYHDGKNQPSKTYPAFLEPDETFIVPDSFLVALDMDDGTLSFIVDGQYMGVAFRGLKGKKLYPVVSAVWGHCEIRMRYLNGLDPEPLPLMDLCRRSVRLALGRERLGEIHTLPLPASLKAYLLYQ [SPSB1] | 91.8 | 98
MGRCCFYTAGTLSLLLLVTSVTLLVARVFQKAVDQSIEKKIVLRNGTEAFDSWEKPPLPVYTQFYFFNVTNPEEILRGETPRVEEVGPYTYRELRNKANIQFGDNGTTISAVSNKAYVFERDQSVGDPKIDLIRTLNIPVLTVIEWSQVHFLREIIEAMLKAYQQKLFVTHTVDELLWGYKDEILSLIHVFRPDISPYFGLFYEKNGTNDGDYVFLTGEDSYLNFTKIVEWNGKTSLDWWITDKCNMINGTDGDSFHPLITKDEVLYVFPSDFCRSVYITFSDYESVQGLPAFRYKVPAEILANTSDNAGFCIPEGNCLGSGVLNVSICKNGAPIIMSFPHFYQADERFVSAIEGMHPNQEDHETFVDINPLTGIILKAAKRFQINIYVKKLDDFVETGDIRTMVFPVMYLNESVHIDKETASRLKSMINTTLIITNIPYIIMALGVFFGLVFTWLACKGQGSMDEGTADERAPLIRT [SCARB2] | 92 | 96.9
